# Assay results: the supplement of paper PMC6411743
# Protein sequences, listed by entry. Tags and fused reporters are not part of them. Lines headed by an entry give the natural chain unless they say otherwise; changes in a name come on top.
# UniProt Q8TAA9: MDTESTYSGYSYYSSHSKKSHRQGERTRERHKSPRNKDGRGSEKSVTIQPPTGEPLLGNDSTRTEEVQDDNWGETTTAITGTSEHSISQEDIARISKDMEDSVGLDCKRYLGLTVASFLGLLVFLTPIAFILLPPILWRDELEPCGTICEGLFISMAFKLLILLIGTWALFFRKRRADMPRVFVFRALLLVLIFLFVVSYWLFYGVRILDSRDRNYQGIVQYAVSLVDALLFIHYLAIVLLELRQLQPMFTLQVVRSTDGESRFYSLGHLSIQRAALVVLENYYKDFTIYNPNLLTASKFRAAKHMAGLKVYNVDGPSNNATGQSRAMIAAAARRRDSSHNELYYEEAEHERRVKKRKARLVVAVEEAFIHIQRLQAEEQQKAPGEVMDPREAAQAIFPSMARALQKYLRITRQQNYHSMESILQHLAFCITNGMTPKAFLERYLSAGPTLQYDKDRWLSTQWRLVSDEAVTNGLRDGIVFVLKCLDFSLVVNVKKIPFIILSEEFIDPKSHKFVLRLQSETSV
# UniProt Q8WU39: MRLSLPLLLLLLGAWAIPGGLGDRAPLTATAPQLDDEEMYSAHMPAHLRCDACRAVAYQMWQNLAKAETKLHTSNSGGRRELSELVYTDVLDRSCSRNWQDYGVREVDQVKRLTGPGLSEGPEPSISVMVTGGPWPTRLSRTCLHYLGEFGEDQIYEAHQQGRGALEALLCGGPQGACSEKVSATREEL
# UniProt Q92499: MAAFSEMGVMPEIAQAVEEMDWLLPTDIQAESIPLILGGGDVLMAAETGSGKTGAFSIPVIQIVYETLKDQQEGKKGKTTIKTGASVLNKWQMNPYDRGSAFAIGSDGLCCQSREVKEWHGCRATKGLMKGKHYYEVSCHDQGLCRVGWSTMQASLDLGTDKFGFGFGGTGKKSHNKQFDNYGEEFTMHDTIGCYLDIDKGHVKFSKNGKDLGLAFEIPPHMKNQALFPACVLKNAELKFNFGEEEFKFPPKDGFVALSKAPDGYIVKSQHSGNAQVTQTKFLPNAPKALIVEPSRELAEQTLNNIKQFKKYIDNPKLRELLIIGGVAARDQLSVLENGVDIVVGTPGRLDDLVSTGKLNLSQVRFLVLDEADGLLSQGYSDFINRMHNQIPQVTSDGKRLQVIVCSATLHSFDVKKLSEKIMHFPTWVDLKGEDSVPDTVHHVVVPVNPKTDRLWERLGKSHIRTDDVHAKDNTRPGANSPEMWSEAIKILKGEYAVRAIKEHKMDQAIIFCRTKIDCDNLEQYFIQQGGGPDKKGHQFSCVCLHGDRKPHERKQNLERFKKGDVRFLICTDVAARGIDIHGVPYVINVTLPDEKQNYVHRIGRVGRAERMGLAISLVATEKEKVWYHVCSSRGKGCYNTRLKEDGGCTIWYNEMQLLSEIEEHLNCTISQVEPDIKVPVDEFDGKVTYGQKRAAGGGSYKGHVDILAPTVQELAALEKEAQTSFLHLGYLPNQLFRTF
# UniProt Q8NCC3: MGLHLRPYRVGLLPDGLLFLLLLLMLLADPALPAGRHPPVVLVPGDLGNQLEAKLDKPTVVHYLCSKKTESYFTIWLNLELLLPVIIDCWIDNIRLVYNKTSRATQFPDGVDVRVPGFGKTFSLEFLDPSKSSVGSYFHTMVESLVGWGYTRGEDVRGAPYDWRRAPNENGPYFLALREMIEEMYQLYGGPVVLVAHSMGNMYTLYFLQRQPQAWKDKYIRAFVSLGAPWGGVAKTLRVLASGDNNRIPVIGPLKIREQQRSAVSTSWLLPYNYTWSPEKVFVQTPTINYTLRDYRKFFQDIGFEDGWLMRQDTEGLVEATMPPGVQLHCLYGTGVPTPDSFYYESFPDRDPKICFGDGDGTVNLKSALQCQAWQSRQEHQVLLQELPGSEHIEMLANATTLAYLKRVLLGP
# UniProt Q92783: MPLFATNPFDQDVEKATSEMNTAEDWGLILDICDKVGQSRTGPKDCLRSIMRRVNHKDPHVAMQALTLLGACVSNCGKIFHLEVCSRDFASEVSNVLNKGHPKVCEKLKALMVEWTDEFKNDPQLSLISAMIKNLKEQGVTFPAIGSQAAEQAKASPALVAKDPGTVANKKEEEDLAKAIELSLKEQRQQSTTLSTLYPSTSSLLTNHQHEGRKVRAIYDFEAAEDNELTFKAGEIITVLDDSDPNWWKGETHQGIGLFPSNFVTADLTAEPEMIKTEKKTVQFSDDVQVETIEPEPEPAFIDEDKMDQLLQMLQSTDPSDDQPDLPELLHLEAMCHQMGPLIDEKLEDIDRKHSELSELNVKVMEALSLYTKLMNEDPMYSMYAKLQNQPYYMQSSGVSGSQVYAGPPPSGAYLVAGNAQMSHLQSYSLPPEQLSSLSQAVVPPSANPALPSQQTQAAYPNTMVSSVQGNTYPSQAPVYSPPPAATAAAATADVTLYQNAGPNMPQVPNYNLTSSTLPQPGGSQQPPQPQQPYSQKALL
# UniProt Q8ND56: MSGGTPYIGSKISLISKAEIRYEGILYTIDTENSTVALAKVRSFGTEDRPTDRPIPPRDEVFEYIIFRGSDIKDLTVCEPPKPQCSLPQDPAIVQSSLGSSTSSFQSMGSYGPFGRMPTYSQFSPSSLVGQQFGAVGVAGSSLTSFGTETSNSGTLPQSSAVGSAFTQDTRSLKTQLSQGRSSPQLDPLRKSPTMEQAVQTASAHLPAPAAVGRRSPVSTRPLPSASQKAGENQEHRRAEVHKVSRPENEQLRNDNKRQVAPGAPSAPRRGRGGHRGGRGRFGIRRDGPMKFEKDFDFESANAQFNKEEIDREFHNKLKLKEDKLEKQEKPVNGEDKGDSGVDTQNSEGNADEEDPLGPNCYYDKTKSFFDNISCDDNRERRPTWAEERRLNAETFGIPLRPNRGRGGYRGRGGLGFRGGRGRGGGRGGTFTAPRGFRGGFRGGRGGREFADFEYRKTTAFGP
# UniProt Q92882: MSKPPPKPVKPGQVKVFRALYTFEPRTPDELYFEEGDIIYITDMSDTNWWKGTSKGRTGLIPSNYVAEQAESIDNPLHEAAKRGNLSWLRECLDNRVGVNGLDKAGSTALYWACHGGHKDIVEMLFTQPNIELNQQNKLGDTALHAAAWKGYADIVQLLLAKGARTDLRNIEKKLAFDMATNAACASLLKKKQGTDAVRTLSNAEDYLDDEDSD
# UniProt Q8WXG6, whole entry, looked up: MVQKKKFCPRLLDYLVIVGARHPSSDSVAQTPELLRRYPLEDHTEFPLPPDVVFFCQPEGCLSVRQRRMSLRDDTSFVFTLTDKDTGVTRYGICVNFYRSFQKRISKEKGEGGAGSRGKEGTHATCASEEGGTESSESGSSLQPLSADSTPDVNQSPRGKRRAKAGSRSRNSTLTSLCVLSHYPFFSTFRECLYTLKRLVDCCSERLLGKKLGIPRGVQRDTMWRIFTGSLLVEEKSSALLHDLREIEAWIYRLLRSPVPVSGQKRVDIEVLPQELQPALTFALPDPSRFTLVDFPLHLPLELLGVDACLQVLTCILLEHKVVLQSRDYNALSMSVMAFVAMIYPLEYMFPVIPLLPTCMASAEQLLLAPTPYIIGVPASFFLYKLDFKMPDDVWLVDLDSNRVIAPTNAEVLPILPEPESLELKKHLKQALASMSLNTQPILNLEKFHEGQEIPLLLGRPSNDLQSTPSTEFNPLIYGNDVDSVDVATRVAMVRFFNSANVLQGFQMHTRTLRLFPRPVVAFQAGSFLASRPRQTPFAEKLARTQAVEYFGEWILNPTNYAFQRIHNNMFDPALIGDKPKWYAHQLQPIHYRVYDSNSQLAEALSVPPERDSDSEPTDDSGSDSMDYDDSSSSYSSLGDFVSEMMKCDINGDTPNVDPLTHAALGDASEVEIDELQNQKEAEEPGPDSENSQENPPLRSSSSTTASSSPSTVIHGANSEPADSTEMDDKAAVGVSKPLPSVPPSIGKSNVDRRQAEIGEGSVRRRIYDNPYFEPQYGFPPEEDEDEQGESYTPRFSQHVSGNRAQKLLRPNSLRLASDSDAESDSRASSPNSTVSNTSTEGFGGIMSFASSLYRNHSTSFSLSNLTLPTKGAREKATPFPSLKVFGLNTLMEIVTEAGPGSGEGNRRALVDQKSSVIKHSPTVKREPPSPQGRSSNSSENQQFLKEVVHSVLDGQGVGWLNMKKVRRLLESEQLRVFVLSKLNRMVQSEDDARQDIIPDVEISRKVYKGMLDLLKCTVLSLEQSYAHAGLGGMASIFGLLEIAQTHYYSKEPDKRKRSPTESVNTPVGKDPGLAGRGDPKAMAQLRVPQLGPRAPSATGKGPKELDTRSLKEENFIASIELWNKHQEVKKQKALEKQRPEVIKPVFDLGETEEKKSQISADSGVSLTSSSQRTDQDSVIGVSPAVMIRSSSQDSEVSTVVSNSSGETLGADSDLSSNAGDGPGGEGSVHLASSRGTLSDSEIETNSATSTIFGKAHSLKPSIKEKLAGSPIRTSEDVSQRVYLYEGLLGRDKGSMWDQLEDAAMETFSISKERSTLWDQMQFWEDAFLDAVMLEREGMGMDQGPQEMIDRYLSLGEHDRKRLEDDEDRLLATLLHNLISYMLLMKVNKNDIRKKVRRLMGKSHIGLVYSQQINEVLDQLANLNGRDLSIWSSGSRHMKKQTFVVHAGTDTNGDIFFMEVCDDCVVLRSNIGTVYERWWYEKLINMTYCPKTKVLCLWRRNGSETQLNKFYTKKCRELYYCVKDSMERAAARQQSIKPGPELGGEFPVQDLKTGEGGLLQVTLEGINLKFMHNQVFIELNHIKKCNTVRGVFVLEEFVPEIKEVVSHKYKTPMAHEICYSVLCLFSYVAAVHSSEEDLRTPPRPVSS
# UniProt Q8ND04: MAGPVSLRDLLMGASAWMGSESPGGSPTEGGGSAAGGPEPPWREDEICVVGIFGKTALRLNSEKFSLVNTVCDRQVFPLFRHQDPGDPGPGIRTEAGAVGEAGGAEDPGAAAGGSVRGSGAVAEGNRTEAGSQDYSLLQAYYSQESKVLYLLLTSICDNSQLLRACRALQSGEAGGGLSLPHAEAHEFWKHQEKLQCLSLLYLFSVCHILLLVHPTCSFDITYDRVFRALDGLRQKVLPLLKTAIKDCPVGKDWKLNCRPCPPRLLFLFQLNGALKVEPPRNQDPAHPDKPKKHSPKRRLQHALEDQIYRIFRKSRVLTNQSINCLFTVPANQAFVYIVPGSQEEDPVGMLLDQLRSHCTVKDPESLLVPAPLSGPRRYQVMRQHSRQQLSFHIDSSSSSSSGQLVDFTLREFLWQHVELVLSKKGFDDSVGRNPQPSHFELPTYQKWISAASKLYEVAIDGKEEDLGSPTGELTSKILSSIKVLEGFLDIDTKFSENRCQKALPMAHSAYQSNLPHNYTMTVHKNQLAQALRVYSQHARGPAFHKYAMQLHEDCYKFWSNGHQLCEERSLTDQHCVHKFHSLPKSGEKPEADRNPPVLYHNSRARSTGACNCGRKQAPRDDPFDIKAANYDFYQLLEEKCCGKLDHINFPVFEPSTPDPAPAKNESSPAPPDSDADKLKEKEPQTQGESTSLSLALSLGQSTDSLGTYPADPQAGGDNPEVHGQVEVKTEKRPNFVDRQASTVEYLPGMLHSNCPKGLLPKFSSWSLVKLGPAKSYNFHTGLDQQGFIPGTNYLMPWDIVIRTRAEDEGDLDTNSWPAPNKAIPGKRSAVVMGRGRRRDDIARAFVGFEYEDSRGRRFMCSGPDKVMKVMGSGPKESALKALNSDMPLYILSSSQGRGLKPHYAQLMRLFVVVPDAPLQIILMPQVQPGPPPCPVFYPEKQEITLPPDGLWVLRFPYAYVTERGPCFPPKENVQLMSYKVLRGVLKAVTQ
# UniProt Q92917: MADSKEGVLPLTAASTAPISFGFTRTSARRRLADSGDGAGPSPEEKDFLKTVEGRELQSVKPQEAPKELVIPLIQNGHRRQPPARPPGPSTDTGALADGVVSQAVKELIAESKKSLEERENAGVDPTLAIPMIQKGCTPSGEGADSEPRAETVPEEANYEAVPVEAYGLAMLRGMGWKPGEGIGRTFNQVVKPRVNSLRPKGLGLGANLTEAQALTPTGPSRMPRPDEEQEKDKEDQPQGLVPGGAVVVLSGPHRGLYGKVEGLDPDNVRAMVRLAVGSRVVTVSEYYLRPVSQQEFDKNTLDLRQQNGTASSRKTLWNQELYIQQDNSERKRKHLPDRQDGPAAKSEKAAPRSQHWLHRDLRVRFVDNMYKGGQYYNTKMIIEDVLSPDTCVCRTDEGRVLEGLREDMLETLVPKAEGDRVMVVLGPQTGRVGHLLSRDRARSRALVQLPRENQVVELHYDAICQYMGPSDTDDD
# UniProt Q8TB37: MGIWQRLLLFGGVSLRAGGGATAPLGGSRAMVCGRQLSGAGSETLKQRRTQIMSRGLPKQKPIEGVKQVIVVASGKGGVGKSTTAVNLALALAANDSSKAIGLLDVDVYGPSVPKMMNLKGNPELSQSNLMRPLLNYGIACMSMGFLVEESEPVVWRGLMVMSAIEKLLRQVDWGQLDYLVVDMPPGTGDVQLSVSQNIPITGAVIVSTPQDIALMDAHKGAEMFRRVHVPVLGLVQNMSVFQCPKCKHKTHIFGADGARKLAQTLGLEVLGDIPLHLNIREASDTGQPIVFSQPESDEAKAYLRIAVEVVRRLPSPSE
# ± gives the standard deviation of the averaged measurements. This is a selection; strong and weak results do not stand in their true shares.
# Compound: Nc1ncnc2c1ncn2[C@@H]1O[C@H](COP(=O)(O)OP(=O)(O)NP(=O)(O)O)[C@@H](O)[C@H]1O [adenylyl imidodiphosphate]
# Experiment: NP40-soluble protein abundance relative to vehicle (solubility fold change) (ratio); higher = more soluble protein in presence of AMP-PNP
# In short: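 Across three independent experiments, values are fold changes against the detergent-processed vehicle for each replicate, based on vsn-normalised intensities. The samples were Jurkat crude lysate treated with eight concentrations (0.1 to 10 mM) for 10 min at room temperature and then 3 min at 37 °C. Lysate was solubilised with 0.8% NP40 and benzonase, ultracentrifuged, and the supernatant analysed by TMT-labelled LC-MS/MS.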
Target,NP40-soluble protein abundance (concentration: 1mM),NP40-soluble protein abundance (concentration: 2mM),NP40-soluble protein abundance (concentration: 4mM),NP40-soluble protein abundance (concentration: 6mM),NP40-soluble protein abundance (concentration: 8mM),NP40-soluble protein abundance (concentration: 10mM)
UniProt Q92552 and related entries,0.976 ± 0.047,0.963 ± 0.048,0.954 ± 0.094,0.962 ± 0.13,0.928 ± 0.095,0.951 ± 0.16
ZC3H15 (UniProt Q8WU90),1.04 ± 0.011,1.09 ± 0.1,1.06 ± 0.036,1.12 ± 0.052,1.11 ± 0.051,1.15 ± 0.054
CORO2A (UniProt Q92828),0.985 ± 0.029,0.959 ± 0.055,1.02 ± 0.021,1.02 ± 0.025,1.01 ± 0.019,1.02 ± 0.085
ERCC4 (UniProt Q92889),1.01 ± 0.016,1.01 ± 0.049,1.03 ± 0.014,0.9697 ± 0.0049,0.99 ± 0.013,0.975 ± 0.025
UniProt Q8WYP5 and related entries,1.04 ± 0.03,1.08 ± 0.041,1.1 ± 0.038,1.18 ± 0.047,1.21 ± 0.068,1.31 ± 0.11
BAP1 (UniProt Q92560),1.02 ± 0.031,1.05 ± 0.031,1.03 ± 0.03,1 ± 0.016,0.989 ± 0.036,1.02 ± 0.031
UniProt Q92540 and related entries,0.986 ± 0.028,1.03 ± 0.031,1.01 ± 0.032,0.973 ± 0.035,0.96 ± 0.025,0.978 ± 0.022
RAB8B (UniProt Q92930),1.01 ± 0.028,0.973 ± 0.044,0.979 ± 0.047,0.96 ± 0.021,0.957 ± 0.031,0.957 ± 0.045
UniProt Q8TAA9 and related entries,1.02 ± 0.025,1.03 ± 0.064,1.02 ± 0.028,1.01 ± 0.019,1.02 ± 0.02,1.02 ± 0.054
GATAD2B (UniProt Q8WXI9),1.01 ± 0.014,1.06 ± 0.046,1.024 ± 0.0076,1.01 ± 0.049,0.994 ± 0.035,1.02 ± 0.03
UniProt Q92900 and related entries,0.983 ± 0.023,0.918 ± 0.075,0.954 ± 0.015,0.957 ± 0.01,0.962 ± 0.026,0.925 ± 0.03
UniProt Q92766 and related entries,1.04 ± 0.026,1.04 ± 0.063,1.05 ± 0.044,1.01 ± 0.02,0.995 ± 0.043,1.03 ± 0.06
UniProt Q92793 and related entries,1.05 ± 0.037,1.05 ± 0.028,1.01 ± 0.035,1.01 ± 0.04,1.02 ± 0.015,1.05 ± 0.02
PLBD2 (UniProt Q8NHP8),0.973 ± 0.029,1 ± 0.032,0.977 ± 0.049,1.01 ± 0.051,0.978 ± 0.043,1.02 ± 0.044
UniProt Q92688 and related entries,1.04 ± 0.075,1.05 ± 0.053,1.02 ± 0.07,1.02 ± 0.016,1.01 ± 0.037,1 ± 0.044
GCDH (UniProt Q92947),0.963 ± 0.013,0.911 ± 0.027,0.929 ± 0.047,0.94 ± 0.035,0.911 ± 0.043,0.895 ± 0.046
MZB1 (UniProt Q8WU39),1.05 ± 0.053,1.04 ± 0.036,1 ± 0.092,0.955 ± 0.051,1.03 ± 0.076,0.988 ± 0.076
ABHD11 (UniProt Q8NFV4),1.02 ± 0.035,1.046 ± 0.0096,1.04 ± 0.023,0.995 ± 0.028,1 ± 0.02,1.01 ± 0.048
UniProt Q8NC60,0.954 ± 0.035,0.998 ± 0.0068,0.962 ± 0.04,0.965 ± 0.06,0.957 ± 0.075,0.965 ± 0.1
PDZD8 (UniProt Q8NEN9),1.03 ± 0.067,1.14 ± 0.097,1.09 ± 0.12,1.02 ± 0.02,0.98 ± 0.028,0.993 ± 0.049

Target,NP40-soluble protein abundance (concentration: 1mM),NP40-soluble protein abundance (concentration: 2mM),NP40-soluble protein abundance (concentration: 4mM),NP40-soluble protein abundance (concentration: 6mM),NP40-soluble protein abundance (concentration: 8mM),NP40-soluble protein abundance (concentration: 10mM)
UniProt Q92608 and related entries,0.986 ± 0.033,0.942 ± 0.066,1.02 ± 0.046,1.06 ± 0.033,1.09 ± 0.037,1.08 ± 0.084
PPP1R13L (UniProt Q8WUF5),1.01 ± 0.017,0.9997 ± 0.0052,1 ± 0.025,1.01 ± 0.029,0.97 ± 0.04,0.992 ± 0.011
COPS5 (UniProt Q92905),0.993 ± 0.044,0.974 ± 0.042,0.982 ± 0.053,0.9789 ± 0.007,1.01 ± 0.082,0.958 ± 0.056
NUP205 (UniProt Q92621),0.996 ± 0.033,0.959 ± 0.057,0.99 ± 0.019,0.943 ± 0.04,1 ± 0.036,1.01 ± 0.051
JARID2 (UniProt Q92833),1.03 ± 0.045,0.9985 ± 0.0084,1 ± 0.075,1.02 ± 0.016,1.01 ± 0.019,1.02 ± 0.027
DDX1 (UniProt Q92499),0.959 ± 0.012,0.91 ± 0.11,0.96 ± 0.014,0.987 ± 0.017,1.004 ± 0.0053,0.982 ± 0.037
PLA2G15 (UniProt Q8NCC3),0.991 ± 0.013,0.975 ± 0.013,1.02 ± 0.03,0.986 ± 0.029,0.9922 ± 0.0084,0.979 ± 0.021
GRPEL2 (UniProt Q8TAA5),1.01 ± 0.015,1.038 ± 0.0016,1.024 ± 0.0071,1.04 ± 0.045,1.043 ± 0.0071,1.03 ± 0.025
UniProt Q8NFC6,1.04 ± 0.046,1.09 ± 0.045,1.04 ± 0.057,1 ± 0.032,0.978 ± 0.046,0.992 ± 0.038
MRPS31 (UniProt Q92665),1.01 ± 0.091,1.02 ± 0.047,1.03 ± 0.11,1 ± 0.1,1.02 ± 0.12,1.03 ± 0.16
UniProt Q8TEB1 and related entries,1.01 ± 0.03,0.98 ± 0.06,0.976 ± 0.034,0.967 ± 0.024,0.961 ± 0.04,0.963 ± 0.076
UniProt Q8TAT6 and related entries,0.955 ± 0.025,0.961 ± 0.022,0.968 ± 0.044,0.983 ± 0.015,0.991 ± 0.036,1.02 ± 0.025
UniProt Q8NDZ4 and related entries,1 ± 0.023,1 ± 0.035,1.01 ± 0.036,1.004 ± 0.0046,1.03 ± 0.015,1.04 ± 0.032
UniProt Q8TBZ6,1.02 ± 0.015,1.03 ± 0.085,1 ± 0.044,0.996 ± 0.038,0.984 ± 0.018,1.03 ± 0.036
NECAP1 (UniProt Q8NC96),1.03 ± 0.044,1.05 ± 0.028,1.06 ± 0.045,1.02 ± 0.036,1.08 ± 0.017,1.05 ± 0.012
UniProt Q8WWY3 and related entries,0.982 ± 0.025,1.01 ± 0.051,0.998 ± 0.02,1.089 ± 0.008,1.07 ± 0.011,1.13 ± 0.057
UniProt Q92783 and related entries,1.042 ± 0.0058,1.02 ± 0.03,0.965 ± 0.04,0.99 ± 0.03,0.952 ± 0.024,0.979 ± 0.04
PI4K2B (UniProt Q8TCG2),0.991 ± 0.021,0.978 ± 0.012,0.971 ± 0.034,1.001 ± 0.0042,0.996 ± 0.038,0.987 ± 0.015
WDR48 (UniProt Q8TAF3),1.04 ± 0.0098,0.973 ± 0.12,1.05 ± 0.025,1.06 ± 0.021,1.089 ± 0.0095,1.08 ± 0.035
LSM14A (UniProt Q8ND56),1.01 ± 0.012,1.09 ± 0.08,1.04 ± 0.018,1.05 ± 0.016,1.04 ± 0.024,1.05 ± 0.033

Target,NP40-soluble protein abundance (concentration: 1mM),NP40-soluble protein abundance (concentration: 2mM),NP40-soluble protein abundance (concentration: 4mM),NP40-soluble protein abundance (concentration: 6mM),NP40-soluble protein abundance (concentration: 8mM),NP40-soluble protein abundance (concentration: 10mM)
UniProt Q8WVQ1 and related entries,0.977 ± 0.02,0.965 ± 0.017,0.9898 ± 0.0082,0.973 ± 0.012,0.96 ± 0.024,0.977 ± 0.022
OSTF1 (UniProt Q92882),1.02 ± 0.028,1.07 ± 0.039,1.02 ± 0.05,0.952 ± 0.019,0.979 ± 0.042,0.949 ± 0.08
UniProt Q8WWC4,1.02 ± 0.048,0.94 ± 0.011,0.996 ± 0.049,0.95 ± 0.049,1 ± 0.038,0.946 ± 0.056
ZNRF2 (UniProt Q8NHG8),1.04 ± 0.037,1.1 ± 0.068,1 ± 0.027,1.02 ± 0.017,0.982 ± 0.03,0.988 ± 0.019
UniProt Q92878 and related entries,1.05 ± 0.035,1.07 ± 0.012,1.06 ± 0.037,1.03 ± 0.073,1.02 ± 0.061,1.05 ± 0.062
TGFBRAP1 (UniProt Q8WUH2),0.96 ± 0.042,0.89 ± 0.093,0.93 ± 0.048,0.895 ± 0.064,0.916 ± 0.047,0.889 ± 0.052
IP6K1 (UniProt Q92551),0.982 ± 0.021,0.996 ± 0.025,1 ± 0.059,0.978 ± 0.037,0.984 ± 0.083,1.01 ± 0.1
UBXN4 (UniProt Q92575),1 ± 0.014,1.03 ± 0.059,0.997 ± 0.037,0.991 ± 0.027,0.963 ± 0.025,0.992 ± 0.049
UniProt Q8TBN0 and related entries,1.01 ± 0.028,1 ± 0.031,1.01 ± 0.021,1.01 ± 0.041,1 ± 0.026,1 ± 0.051
UniProt Q8WXG6-4|Q8WXG6-5|Q8WXG6-6|Q8WXG6-7|Q8WXG6-8|Q8WXG6,1.04 ± 0.018,1.05 ± 0.034,1.05 ± 0.033,0.988 ± 0.011,0.997 ± 0.036,1 ± 0.023
UniProt Q8NC51 and related entries,1.08 ± 0.052,1.16 ± 0.042,1.14 ± 0.066,1.21 ± 0.094,1.25 ± 0.086,1.32 ± 0.078
UniProt Q8TF05 and related entries,0.974 ± 0.029,0.935 ± 0.014,0.964 ± 0.017,0.91 ± 0.047,0.915 ± 0.044,0.895 ± 0.041
UniProt Q8ND04 and related entries,1.02 ± 0.024,0.999 ± 0.025,1.03 ± 0.014,1.02 ± 0.026,1.03 ± 0.052,1.02 ± 0.06
GPKOW (UniProt Q92917),1.06 ± 0.021,1.1 ± 0.057,1.05 ± 0.046,1.04 ± 0.019,1.015 ± 0.0094,1.06 ± 0.025
NUBPL (UniProt Q8TB37),1 ± 0.045,1.01 ± 0.057,1.02 ± 0.05,1.06 ± 0.092,1.03 ± 0.092,1.05 ± 0.076
UniProt Q8TCC3 and related entries,1.02 ± 0.074,1.05 ± 0.066,1.01 ± 0.1,1.02 ± 0.11,1.01 ± 0.11,1.02 ± 0.17
UniProt Q8TEQ8 and related entries,0.996 ± 0.044,0.987 ± 0.021,0.99 ± 0.024,0.967 ± 0.021,0.981 ± 0.031,0.972 ± 0.044
UniProt Q8TCY9,0.99342 ± 0.00023,1.01 ± 0.028,0.986 ± 0.04,0.974 ± 0.043,0.982 ± 0.029,0.9689 ± 0.0011
UniProt Q8NDI1-2|Q8NDI1-3,0.979 ± 0.042,0.947 ± 0.04,0.951 ± 0.036,0.971 ± 0.013,0.966 ± 0.065,0.922 ± 0.032
UniProt Q8TCA0 and related entries,0.97 ± 0.016,1.01 ± 0.018,0.984 ± 0.02,0.971 ± 0.048,0.942 ± 0.015,0.978 ± 0.048

# Three records picked at random from those above:
Target,NP40-soluble protein abundance (concentration: 1mM),NP40-soluble protein abundance (concentration: 2mM),NP40-soluble protein abundance (concentration: 4mM),NP40-soluble protein abundance (concentration: 6mM),NP40-soluble protein abundance (concentration: 8mM),NP40-soluble protein abundance (concentration: 10mM)
UniProt Q8TEQ8 and related entries,0.996 ± 0.044,0.987 ± 0.021,0.99 ± 0.024,0.967 ± 0.021,0.981 ± 0.031,0.972 ± 0.044
UniProt Q8TCA0 and related entries,0.97 ± 0.016,1.01 ± 0.018,0.984 ± 0.02,0.971 ± 0.048,0.942 ± 0.015,0.978 ± 0.048
UniProt Q8NDI1-2|Q8NDI1-3,0.979 ± 0.042,0.947 ± 0.04,0.951 ± 0.036,0.971 ± 0.013,0.966 ± 0.065,0.922 ± 0.032
